This is an account of results in paper PMC5553809.

The exact form of at least one protein or probe is not confirmed. No signal at the amounts used counts as a negative.

The target in this series is Dps (UniProt P0ABT2). Nature of the series: EMSA. The note with it: band-shift buffer, recombinant protein, probe letters rebuilt from the primers and the genome. Background: A gel shift assay detects complexes by their altered migration in electrophoresis.

Turning to “ATGCAGATCTTCTCGCTACTTTTCCTCTACACCGTCTTTATATATCGAATTATGCAAAAGCATATTTATTCCGAAAATTCCTGGCGAGCAGATAAATAAGAATTGTTCTTATCAATATATCTAACTCATTGAATCTTTATTAGTTTTGTTTTTCACGCTTGTTACCACTATTAGTGTGATAGGAACAGCCAGAATAGCGGAACACATAGCCGGTGCTATACTTAATCTCGTTAATTACTGGGACATAACATCTAGAGGA (double strand) [dps_short]”, under “positive control in all band shifts”, the binding result is “binds”.

Regarding “TTTGGCAGAGGTTAAGCGCTTGCTTTGCGCGCACGTTCGGGAACTGCATGACTTTTATGGTCCGGCAAAAGGGTACCGAATTGCACGTAAACACGTTTCCTGGTATCTCCAGGAACACGCTCCAAATGACCAGTTTCGGCGCACATTCAACGCCATTGAGGATGCCAGCGAACAGCTGGAGGCGTTGGAGGCATACTTCGAAAATTTTGCGTAAACAGAAATAAAGAGCTGACAGAACTATGTTCGAACAACGCGTAAATTCTGACGTACTGACCGTTTCTACCGTTAACTCTCAGGATCAGGTAACCCAAAAACCCCTGCGTGACTCGGTTAAACAGGCACTGAAGAACTATTTTGCTCAACTGAATGGTCAGGATGTGAATGACCTCTATGAGCTGGTAC (double strand) [fis_up]”, the binding result (remained unbound in vitro) is “no binding”.
